According to article PMC4312126:
These are yes or no findings as the source states them, for the method shown. Binding seen in cells or lysates may run through a third protein. Some results given as binding are weak or reduced against the parent protein; the word gives no strength. For some assays here: Where a sequence is shown, tags or fusion partners need not be part of it.

The chains behind the UniProt entries cited, without tags or fusion partners.
UniProt P26358: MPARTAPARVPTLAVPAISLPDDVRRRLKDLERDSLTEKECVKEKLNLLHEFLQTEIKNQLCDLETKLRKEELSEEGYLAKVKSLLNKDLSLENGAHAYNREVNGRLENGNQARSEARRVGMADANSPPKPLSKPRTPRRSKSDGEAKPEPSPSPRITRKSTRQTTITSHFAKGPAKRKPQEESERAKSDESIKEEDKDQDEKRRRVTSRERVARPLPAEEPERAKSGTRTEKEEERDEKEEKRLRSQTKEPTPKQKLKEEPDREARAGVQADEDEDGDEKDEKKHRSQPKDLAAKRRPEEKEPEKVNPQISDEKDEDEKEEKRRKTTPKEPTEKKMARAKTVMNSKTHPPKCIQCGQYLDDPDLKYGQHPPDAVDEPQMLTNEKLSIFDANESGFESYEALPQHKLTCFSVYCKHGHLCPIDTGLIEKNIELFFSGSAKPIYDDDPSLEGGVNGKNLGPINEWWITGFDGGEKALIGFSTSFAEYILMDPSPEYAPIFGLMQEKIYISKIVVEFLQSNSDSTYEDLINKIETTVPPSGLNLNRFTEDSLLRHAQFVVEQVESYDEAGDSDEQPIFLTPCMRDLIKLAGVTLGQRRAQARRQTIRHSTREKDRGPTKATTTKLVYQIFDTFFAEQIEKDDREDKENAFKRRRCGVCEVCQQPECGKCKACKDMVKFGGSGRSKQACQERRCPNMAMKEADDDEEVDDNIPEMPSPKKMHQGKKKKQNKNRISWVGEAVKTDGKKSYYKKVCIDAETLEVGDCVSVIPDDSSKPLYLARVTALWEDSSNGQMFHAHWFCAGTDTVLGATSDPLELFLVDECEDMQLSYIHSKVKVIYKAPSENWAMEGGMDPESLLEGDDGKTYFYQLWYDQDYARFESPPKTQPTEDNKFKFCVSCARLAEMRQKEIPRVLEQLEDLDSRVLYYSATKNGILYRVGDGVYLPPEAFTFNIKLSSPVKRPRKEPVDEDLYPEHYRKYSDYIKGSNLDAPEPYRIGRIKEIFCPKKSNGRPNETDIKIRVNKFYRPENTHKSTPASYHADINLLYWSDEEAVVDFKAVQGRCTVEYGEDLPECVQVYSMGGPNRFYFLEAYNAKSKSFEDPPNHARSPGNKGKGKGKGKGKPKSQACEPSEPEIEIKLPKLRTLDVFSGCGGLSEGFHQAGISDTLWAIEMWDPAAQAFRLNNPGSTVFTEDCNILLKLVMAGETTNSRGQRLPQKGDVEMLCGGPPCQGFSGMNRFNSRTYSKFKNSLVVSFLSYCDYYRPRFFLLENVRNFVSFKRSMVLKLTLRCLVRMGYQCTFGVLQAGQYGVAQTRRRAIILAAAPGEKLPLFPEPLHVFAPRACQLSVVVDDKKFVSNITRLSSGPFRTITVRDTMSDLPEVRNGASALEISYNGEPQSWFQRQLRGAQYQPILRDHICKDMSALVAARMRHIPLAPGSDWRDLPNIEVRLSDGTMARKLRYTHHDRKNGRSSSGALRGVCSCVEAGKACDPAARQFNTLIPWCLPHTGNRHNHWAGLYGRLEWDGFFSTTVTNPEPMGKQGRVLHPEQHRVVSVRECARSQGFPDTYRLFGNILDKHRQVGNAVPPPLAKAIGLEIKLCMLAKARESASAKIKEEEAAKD
UniProt Q9UBB5: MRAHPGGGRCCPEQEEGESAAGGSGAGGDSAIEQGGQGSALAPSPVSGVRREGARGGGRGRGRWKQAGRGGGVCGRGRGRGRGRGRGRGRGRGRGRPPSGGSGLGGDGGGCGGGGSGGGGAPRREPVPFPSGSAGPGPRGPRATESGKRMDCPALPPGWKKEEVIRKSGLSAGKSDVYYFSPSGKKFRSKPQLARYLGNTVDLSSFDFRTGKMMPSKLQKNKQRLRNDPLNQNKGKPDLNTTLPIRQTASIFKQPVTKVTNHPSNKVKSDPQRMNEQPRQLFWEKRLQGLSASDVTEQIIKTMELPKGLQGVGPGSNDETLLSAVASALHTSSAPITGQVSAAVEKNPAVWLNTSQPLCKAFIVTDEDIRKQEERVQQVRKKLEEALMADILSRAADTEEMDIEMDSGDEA

T1: FLAG-δEF1 (wild type) (UniProt P37275)
T1 sequence: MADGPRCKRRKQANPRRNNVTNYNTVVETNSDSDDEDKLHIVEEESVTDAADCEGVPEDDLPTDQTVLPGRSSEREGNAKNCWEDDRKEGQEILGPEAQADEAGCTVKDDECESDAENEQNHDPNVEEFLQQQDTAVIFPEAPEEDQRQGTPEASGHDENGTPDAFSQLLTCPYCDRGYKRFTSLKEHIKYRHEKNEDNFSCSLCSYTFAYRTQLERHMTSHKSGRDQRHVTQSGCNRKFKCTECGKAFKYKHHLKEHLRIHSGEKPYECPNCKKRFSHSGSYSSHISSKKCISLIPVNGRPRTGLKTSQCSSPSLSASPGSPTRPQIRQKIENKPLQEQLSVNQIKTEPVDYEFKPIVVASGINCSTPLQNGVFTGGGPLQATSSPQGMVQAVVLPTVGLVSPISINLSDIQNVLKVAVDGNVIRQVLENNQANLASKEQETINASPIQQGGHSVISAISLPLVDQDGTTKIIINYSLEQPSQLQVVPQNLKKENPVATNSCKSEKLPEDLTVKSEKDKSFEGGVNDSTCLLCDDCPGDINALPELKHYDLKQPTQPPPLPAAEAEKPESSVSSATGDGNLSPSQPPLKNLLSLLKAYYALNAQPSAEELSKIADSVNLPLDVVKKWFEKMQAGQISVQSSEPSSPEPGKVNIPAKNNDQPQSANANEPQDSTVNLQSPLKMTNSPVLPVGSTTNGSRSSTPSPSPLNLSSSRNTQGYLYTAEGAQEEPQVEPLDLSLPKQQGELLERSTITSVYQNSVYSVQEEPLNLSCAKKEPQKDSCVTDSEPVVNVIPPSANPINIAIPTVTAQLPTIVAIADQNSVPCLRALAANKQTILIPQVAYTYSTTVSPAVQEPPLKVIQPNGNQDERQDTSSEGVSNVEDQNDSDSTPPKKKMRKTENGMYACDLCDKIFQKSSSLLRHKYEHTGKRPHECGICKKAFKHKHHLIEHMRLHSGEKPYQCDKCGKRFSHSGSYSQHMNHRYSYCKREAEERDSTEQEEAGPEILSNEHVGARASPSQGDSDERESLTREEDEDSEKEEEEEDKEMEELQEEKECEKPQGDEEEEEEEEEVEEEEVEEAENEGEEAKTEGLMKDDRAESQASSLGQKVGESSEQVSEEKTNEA

B1: endogenous δEF1 (protein, UniProt P37275 1-1124)
chain: T1 sequence

Legend:
FLAG-δEF1 (wild type) = target: T1, FLAG-δEF1 (wild type); assay: co-IP; HEK293 cells transiently transfected, harvested after 24 h; lysis in 20 mmol/L Tris-HCl pH 7.5, 150 mmol/L NaCl, 10 mmol/L EDTA, 1 mmol/L EGTA, 1% Nonidet P-40; IP with anti-FLAG antibody, IB with anti-Myc or anti-HA antibody
[1] = target: endogenous DNMT1 (human (endogenous in Hs578T)) (UniProt P26358); assay: co-IP; endogenous proteins of Hs578T cells; IP with anti-DNMT1 antibody or IgG, IB with anti-DNMT1 or anti-δEF1 antibodies

Molecule	binding (FLAG-δEF1 (wild type))	binding [1]
HA-MBD2 (from UniProt Q9UBB5 1-411)	binds	
B1		binds
